Results taken from the supplement of paper PMC10849652.
This is one part of the list.

Amino acid sequences for entries named in this document (tags omitted). A change or cut given only in a name is not applied to a line headed by its entry.
UniProt Q9HAT2: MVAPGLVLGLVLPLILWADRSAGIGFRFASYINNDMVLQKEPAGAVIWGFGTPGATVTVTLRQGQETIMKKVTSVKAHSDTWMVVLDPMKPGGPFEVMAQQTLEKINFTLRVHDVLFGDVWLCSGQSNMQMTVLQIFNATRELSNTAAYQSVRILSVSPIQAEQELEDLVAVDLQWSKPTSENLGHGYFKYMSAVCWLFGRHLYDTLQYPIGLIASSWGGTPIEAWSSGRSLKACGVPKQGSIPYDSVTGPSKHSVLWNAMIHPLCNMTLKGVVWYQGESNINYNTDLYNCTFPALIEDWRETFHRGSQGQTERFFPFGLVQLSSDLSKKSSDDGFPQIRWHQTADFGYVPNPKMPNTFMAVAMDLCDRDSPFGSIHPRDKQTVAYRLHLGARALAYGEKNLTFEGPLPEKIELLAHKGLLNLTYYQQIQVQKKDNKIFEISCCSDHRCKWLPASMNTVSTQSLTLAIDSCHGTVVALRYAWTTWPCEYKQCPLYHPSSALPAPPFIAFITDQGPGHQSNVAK
UniProt Q9UIU6: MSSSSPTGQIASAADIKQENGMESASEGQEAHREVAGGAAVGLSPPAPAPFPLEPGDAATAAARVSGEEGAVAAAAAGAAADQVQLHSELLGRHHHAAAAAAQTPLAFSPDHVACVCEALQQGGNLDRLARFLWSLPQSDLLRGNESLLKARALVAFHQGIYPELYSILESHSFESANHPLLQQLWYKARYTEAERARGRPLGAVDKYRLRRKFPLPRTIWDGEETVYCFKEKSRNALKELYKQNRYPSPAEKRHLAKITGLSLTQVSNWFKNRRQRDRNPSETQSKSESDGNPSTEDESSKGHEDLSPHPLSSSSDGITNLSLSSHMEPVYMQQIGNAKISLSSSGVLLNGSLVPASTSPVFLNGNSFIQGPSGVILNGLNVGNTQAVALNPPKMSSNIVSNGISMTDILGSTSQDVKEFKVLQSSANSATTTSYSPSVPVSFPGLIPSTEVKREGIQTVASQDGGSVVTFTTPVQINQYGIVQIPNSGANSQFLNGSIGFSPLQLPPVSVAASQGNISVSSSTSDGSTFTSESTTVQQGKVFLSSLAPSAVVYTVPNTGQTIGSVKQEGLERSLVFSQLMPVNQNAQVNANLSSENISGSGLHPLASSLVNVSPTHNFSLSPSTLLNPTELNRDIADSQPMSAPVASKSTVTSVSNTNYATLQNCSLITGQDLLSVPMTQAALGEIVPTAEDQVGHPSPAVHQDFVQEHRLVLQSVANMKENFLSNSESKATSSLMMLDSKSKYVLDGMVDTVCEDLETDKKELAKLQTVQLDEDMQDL
UniProt Q8N196: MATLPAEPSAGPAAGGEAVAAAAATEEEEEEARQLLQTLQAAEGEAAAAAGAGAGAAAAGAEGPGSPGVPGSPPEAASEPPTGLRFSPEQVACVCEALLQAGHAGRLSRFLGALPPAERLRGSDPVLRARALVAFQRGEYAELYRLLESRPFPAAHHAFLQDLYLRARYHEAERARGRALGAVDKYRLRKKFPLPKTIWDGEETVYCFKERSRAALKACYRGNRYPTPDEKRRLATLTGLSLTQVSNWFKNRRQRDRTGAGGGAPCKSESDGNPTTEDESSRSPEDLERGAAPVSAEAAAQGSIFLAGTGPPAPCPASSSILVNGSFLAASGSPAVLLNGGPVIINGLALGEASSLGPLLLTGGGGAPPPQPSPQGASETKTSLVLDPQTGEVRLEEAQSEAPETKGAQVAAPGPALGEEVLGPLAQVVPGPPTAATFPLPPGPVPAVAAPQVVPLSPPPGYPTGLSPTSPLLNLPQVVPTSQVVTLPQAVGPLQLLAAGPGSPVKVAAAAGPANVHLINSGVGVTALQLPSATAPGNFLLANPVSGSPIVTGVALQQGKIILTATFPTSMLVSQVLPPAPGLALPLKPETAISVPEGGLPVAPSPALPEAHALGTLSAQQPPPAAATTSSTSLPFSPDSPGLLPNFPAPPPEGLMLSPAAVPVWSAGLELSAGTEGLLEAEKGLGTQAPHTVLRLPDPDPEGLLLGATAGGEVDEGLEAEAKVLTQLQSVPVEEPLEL
UniProt Q6PI26: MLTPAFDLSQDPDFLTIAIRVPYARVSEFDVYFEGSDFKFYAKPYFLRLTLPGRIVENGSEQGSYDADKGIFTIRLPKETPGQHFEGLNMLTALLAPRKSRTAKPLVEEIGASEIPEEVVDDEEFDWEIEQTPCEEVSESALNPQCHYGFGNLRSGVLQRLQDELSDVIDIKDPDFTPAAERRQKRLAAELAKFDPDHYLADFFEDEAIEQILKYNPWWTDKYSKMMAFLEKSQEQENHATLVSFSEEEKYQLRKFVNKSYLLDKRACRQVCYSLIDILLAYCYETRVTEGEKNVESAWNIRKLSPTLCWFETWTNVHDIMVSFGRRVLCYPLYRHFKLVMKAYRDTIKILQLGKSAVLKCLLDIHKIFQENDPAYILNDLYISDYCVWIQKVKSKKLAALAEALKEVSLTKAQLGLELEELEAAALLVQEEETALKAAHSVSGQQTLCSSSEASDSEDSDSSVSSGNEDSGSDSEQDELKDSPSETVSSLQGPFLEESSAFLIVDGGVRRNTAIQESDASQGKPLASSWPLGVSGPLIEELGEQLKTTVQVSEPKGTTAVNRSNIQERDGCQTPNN
UniProt Q9Y6P5: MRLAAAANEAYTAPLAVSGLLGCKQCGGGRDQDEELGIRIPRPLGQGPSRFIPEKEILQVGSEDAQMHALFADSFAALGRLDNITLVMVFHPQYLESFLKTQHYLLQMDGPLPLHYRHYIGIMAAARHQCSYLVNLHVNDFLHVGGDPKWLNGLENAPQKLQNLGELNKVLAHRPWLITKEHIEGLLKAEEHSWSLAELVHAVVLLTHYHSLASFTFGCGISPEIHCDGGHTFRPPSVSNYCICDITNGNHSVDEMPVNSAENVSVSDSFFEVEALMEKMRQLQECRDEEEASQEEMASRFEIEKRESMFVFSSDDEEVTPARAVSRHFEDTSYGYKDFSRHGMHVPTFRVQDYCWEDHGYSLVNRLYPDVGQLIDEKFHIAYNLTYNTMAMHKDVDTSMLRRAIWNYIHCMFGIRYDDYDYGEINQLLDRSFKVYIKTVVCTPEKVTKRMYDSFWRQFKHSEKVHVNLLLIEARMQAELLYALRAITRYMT
UniProt P12757: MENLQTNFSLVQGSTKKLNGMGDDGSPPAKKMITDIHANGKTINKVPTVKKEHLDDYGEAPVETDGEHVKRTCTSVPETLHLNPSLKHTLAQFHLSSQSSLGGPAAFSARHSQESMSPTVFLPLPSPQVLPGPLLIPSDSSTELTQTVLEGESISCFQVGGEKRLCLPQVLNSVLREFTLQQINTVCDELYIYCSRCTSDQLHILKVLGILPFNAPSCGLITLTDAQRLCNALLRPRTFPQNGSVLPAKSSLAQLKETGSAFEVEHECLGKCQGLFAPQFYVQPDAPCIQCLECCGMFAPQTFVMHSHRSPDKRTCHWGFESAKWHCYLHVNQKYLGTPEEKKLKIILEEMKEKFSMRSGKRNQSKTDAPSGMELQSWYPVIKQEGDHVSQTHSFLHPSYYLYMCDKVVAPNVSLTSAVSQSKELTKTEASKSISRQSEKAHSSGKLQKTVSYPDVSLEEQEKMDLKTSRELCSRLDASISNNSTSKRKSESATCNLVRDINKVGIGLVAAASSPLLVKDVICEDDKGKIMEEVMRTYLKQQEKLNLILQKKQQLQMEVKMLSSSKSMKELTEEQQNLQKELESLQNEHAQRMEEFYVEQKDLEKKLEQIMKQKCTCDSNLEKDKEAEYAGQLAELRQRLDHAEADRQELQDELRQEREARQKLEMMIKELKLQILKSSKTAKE
UniProt Q9UQQ2: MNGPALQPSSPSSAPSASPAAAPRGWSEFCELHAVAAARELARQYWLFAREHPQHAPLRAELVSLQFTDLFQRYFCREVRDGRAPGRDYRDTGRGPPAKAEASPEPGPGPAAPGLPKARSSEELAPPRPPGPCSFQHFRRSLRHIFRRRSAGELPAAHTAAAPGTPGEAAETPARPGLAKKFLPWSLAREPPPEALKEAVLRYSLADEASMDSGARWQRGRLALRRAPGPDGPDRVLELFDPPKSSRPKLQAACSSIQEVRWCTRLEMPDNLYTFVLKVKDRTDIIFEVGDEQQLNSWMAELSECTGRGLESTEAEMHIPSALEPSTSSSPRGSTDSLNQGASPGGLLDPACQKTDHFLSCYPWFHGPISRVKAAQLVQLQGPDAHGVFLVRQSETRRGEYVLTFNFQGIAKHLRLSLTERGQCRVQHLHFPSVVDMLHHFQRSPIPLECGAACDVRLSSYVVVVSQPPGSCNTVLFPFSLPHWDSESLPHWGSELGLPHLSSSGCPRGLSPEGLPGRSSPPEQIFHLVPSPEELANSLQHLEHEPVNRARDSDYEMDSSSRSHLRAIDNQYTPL
UniProt Q13309, whole entry, looked up: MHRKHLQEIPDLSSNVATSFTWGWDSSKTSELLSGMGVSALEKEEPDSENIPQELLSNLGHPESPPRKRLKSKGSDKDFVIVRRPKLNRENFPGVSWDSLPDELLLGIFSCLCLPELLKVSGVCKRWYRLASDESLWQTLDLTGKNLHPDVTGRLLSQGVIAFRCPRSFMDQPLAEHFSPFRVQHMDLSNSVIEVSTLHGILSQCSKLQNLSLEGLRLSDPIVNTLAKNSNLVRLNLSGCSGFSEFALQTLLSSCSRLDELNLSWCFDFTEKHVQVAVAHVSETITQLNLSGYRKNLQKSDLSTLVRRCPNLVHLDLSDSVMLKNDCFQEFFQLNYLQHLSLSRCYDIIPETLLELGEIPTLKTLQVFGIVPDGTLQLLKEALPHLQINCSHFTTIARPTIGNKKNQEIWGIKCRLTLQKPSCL
UniProt Q86VZ5: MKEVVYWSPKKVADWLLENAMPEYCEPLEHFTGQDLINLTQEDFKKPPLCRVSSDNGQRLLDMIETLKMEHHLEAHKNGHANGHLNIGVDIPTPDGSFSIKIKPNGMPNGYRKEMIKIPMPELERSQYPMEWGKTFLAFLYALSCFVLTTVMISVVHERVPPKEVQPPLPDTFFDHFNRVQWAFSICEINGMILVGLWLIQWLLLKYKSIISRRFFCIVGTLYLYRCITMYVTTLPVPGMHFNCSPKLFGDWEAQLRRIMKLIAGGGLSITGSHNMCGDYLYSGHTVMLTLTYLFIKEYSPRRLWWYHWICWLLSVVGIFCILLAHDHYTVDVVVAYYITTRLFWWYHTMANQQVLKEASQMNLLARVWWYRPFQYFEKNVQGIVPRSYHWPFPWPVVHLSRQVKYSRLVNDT
UniProt Q9NP50: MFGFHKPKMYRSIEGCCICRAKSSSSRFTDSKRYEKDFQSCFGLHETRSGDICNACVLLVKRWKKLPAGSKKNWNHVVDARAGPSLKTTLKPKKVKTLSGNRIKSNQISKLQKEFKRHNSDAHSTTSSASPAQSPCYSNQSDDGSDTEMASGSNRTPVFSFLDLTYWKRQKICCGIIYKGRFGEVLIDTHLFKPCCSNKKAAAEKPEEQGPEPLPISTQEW
UniProt O14796: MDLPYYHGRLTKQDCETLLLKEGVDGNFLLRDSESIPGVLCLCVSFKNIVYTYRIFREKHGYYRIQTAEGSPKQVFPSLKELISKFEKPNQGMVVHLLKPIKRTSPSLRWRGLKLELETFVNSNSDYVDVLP
UniProt Q2VWA4: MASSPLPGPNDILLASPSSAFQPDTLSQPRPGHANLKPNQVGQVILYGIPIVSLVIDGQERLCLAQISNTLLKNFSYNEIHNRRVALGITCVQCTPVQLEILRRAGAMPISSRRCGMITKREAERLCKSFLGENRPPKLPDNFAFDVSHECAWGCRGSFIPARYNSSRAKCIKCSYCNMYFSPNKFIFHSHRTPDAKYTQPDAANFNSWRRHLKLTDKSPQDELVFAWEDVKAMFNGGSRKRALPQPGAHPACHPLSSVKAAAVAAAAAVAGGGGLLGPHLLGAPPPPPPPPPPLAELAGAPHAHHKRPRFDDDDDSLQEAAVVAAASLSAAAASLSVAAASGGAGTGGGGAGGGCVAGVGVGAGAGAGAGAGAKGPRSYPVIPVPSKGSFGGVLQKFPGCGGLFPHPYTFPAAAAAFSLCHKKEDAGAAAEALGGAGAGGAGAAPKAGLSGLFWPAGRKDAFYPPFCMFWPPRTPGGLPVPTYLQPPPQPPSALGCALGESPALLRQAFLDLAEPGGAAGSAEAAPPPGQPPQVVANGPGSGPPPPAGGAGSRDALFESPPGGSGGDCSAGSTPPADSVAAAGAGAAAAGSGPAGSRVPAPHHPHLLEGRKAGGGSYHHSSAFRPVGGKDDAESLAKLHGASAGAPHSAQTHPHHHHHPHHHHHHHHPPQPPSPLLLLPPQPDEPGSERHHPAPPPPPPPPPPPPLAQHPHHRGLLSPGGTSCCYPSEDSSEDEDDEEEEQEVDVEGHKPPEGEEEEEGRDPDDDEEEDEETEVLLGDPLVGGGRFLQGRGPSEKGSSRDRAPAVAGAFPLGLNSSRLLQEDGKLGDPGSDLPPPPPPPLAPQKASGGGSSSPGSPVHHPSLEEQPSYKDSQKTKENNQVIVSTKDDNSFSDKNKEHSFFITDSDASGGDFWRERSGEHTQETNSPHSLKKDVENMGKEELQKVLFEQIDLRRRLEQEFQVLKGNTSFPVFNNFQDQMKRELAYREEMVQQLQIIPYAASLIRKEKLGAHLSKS

compound: C1=CC=C(C=C1)[C@H](COC2=CC3=C(C=C2)NC(=O)N3)NC(=O)C4=CC=CN(C4=O)CC5=CC(=C(C=C5)F)F; experiment: log2 fold change, soluble protein after heating vs DMSO (PISA); higher = thermal stabilisation; K562 lysate, 10 uM; active = over 0.2 and 3.5 SD of the protein, either way, in both replicates (recomputed)
In short: (§1)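 Values give the log-two fold change in thermal stability against solvent controls, from duplicates. Crude K562 extract at 1 mg/mL protein, made by dounce homogenisation in PBS pH 7.4 with 1 mM MgCl2, was treated with 10 μM compound for 30 min. After 3 min heating across 48°C-58°C, aliquots were pooled, adjusted to 0.5% NP-40 at 4°C and centrifuged at 21,000xg for 90 min. The supernatant was measured by TMTpro 16plex LC-MS/MS with channel sums equalised.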

Row | Target | log2 fold change
1 | SIAE (UniProt Q9HAT2) | inactive: 0.01
2 | SIX4 (UniProt Q9UIU6) | inactive: 0.109
3 | SF3B2 (UniProt E9PJ04) | inactive: -0.013
4 | SIX5 (UniProt Q8N196) | inactive: -0.011
5 | SHQ1 (UniProt Q6PI26) | inactive: 0.019
6 | SESN1 isoform 2 (UniProt Q9Y6P5) | inactive: -0.002

compound: CC1=C(SC2=C1C(=N[C@H](C3=NN=C(N32)C)CC(=O)N)C4=CC=C(C=C4)Cl)C; experiment: as above
In short: as §1

Row | Target | log2 fold change
7 | SIAE (UniProt Q9HAT2) | inactive: -0.004
8 | SIX4 (UniProt Q9UIU6) | inactive: -0.058
9 | SF3B2 (UniProt E9PJ04) | inactive: 0.045
10 | SIX5 (UniProt Q8N196) | inactive: 0.034
11 | SHQ1 (UniProt Q6PI26) | inactive: -0.146
12 | SESN1 isoform 2 (UniProt Q9Y6P5) | inactive: 0.021

compound: CC1=C2C(=CC=C1)N=C(N(C2=O)C3=CC=CC=C3C)CN4C=NC5=C(N=CN=C54)N; experiment: as above
In short: as §1

Row | Target | log2 fold change
13 | SIN3B (UniProt O75182) | inactive: -0.129
14 | SKIV2L (UniProt Q15477) | inactive: -0.033
15 | SETX isoform 4 (UniProt Q7Z333) | inactive: 0.046
16 | SKIL (UniProt P12757) | inactive: 0.156
17 | SH2B3 (UniProt Q9UQQ2) | inactive: 0.05
18 | SF1 (UniProt H7C0N4) | inactive: -0.07
19 | SHARPIN (UniProt Q9H0F6) | inactive: 0.078
20 | SIRT3 (UniProt Q9NTG7) | inactive: -0.128
21 | SKP2 (UniProt Q13309) | inactive: -0.015
22 | SFXN5 (UniProt Q8TD22) | inactive: 0.117
23 | SGMS1 (UniProt Q86VZ5) | inactive: 0.049
24 | SINHCAF (UniProt Q9NP50) | inactive: 0.885
25 | SH2D1B (UniProt O14796) | inactive: -0.029
26 | SIGIRR (UniProt Q6IA17) | inactive: 0.183
27 | SLC10A3 (UniProt P09131) | inactive: 0.055
28 | SLC18B1 (UniProt Q6NT16) | inactive: 0.165
29 | SGK3 (UniProt Q96BR1) | inactive: 0.056
30 | SKOR2 (UniProt Q2VWA4) | inactive: 0.083

compound: Cc1sc2c(c1C)C(c1ccc(Cl)cc1)=N[C@@H](CC(=O)OC(C)(C)C)c1nnc(C)n1-2; experiment: as above
In short: as §1

Row | Target | log2 fold change
31 | SET isoform 3 (UniProt Q01105) | inactive: -0.05
32 | SLC10A4 (UniProt Q96EP9) | inactive: -0.043
33 | SLC12A6 isoform 2 (UniProt Q9UHW9) | inactive: -0.179
34 | SERPINA1 (UniProt P01009) | inactive: -0.045
35 | SIK3 (UniProt Q9Y2K2) | inactive: -0.196
36 | SETX isoform 4 (UniProt Q7Z333) | inactive: -0.033
37 | SHB (UniProt Q15464) | inactive: 0.033
38 | SIX5 (UniProt Q8N196) | inactive: -0.037
39 | SHARPIN (UniProt Q9H0F6) | inactive: -0.093
40 | SIRT3 (UniProt Q9NTG7) | inactive: 0.069
41 | SKP2 (UniProt Q13309) | inactive: -0.003
42 | SFXN5 (UniProt Q8TD22) | inactive: -0.033
43 | SGMS1 (UniProt Q86VZ5) | inactive: 0.004
44 | SHQ1 (UniProt Q6PI26) | inactive: -0.42
45 | SINHCAF (UniProt Q9NP50) | inactive: 0.13
46 | SH2D1B (UniProt O14796) | inactive: 0.017
47 | SFT2D3 (UniProt Q587I9) | inactive: -0.204
48 | SFT2D1 (UniProt Q8WV19) | inactive: 0.033
49 | SGK3 (UniProt Q96BR1) | inactive: -0.184
50 | SHLD1 (UniProt Q8IYI0) | inactive: 0.174
51 | SKOR2 (UniProt Q2VWA4) | inactive: -0.157
52 | SETD6 (UniProt Q8TBK2) | inactive: 0.097

compound: c1ccc([C@@H]2C[C@H]2NC2CCNCC2)cc1; experiment: as above
In short: as §1

Row | Target | log2 fold change
53 | SIAE (UniProt Q9HAT2) | inactive: 0.082
54 | SET isoform 3 (UniProt Q01105) | inactive: -0.074
55 | SIX4 (UniProt Q9UIU6) | inactive: 0.123
56 | SIN3B (UniProt O75182) | inactive: 0.052
57 | SF3B2 (UniProt E9PJ04) | inactive: 0.042
58 | SERPINA1 (UniProt P01009) | inactive: -0.084
59 | SIK3 (UniProt Q9Y2K2) | inactive: -0.134
60 | SETX isoform 4 (UniProt Q7Z333) | inactive: -0.024
61 | SKIL (UniProt P12757) | inactive: 0.031
62 | SHB (UniProt Q15464) | inactive: 0.086
63 | SIX5 (UniProt Q8N196) | inactive: 0.209
64 | SF1 (UniProt H7C0N4) | inactive: -0.064
65 | SHC1 (UniProt P29353) | inactive: 0.201
66 | SIK2 (UniProt Q9H0K1) | inactive: -0.029
67 | SKP2 (UniProt Q13309) | inactive: 0.001
68 | SGMS1 (UniProt Q86VZ5) | inactive: 0.013
69 | SLC12A7 (UniProt Q9Y666) | inactive: 0.103
70 | SHQ1 (UniProt Q6PI26) | inactive: 0.115
71 | SINHCAF (UniProt Q9NP50) | inactive: 0.19
72 | SH2D1B (UniProt O14796) | inactive: 0.024
73 | SESN1 isoform 2 (UniProt Q9Y6P5) | inactive: 0.136
74 | SIGIRR (UniProt Q6IA17) | inactive: -0.004
75 | SFT2D3 (UniProt Q587I9) | inactive: -0.158
76 | SLC10A3 (UniProt P09131) | inactive: -0.046
77 | SLC18B1 (UniProt Q6NT16) | inactive: -0.092
78 | SKI (UniProt P12755) | inactive: -0.075
79 | SGSH (UniProt P51688) | inactive: -0.041
80 | SKOR2 (UniProt Q2VWA4) | inactive: -0.274
